{
  "source": "paper PMC9318729",
  "about": "(Toxins, 2022)",
  "test_system": "A549 cells",
  "experiment": "MTT cell viability assay",
  "type": "cell-based, human",
  "settings": "24 h treatment, mean ± SEM (n = 3), read-out: IC50 against A549 cells",
  "description": "MTT assay was performed to analyze cellular viability as previously reported by us. Briefly, A549, H3122, PC-9, H460 and MRC-5 cells (1 × 10^4 cells/well) were grown in 96-well plates and exposed to the different concentrations of Smp24 (1.25–20 μM) with 24 h. […] After incubation, 10 µL MTT (5 mg/mL) was added before incubation for 4 h at 37 °C in the dark. Subsequently, the cell medium was discarded, and 200 µL DMSO was applied into each well before the absorbance value at 490 nm was determined via the microplate reader (Tecan Company, Männedorf, Switzerland). Cell proliferation was further detected by the BeyoClick™ EdU cell proliferation kit with Alexa Fluor 488 (Beyotime Institute of Biotechnology, Shanghai, China) according to the protocol of manufacturer. In brief, A549 cells (2 × 10^5 cells/well) were grown in 6-well plates and exposed to different concentrations of Smp24 (0, 1.25, 2.5 and 5 μM) for 24 h. Then, the cells were incubated with EdU for 2 h and stained with Alexa Fluor 488 for 30 min in the dark before cell fluorescence intensity was measured by flow cytometry (Becton Dickinson Company, Franklin Lakes, NJ, USA). The experiments had been performed in triplicate.",
  "data": [
    {"smiles": "N.N.[Cl][Pt][Cl]", "note": "[cisplatin, reference compound]", "values": [
      {"measurement": "IC50", "value": "32 ± 1.79", "unit": "µM"}
    ]}
  ]
}
